# Results of single-concentration screens

By UniProt entry, the sequences of proteins in these tests, tags left out. Residues count along the entry.
UniProt P9WFT3, whole entry: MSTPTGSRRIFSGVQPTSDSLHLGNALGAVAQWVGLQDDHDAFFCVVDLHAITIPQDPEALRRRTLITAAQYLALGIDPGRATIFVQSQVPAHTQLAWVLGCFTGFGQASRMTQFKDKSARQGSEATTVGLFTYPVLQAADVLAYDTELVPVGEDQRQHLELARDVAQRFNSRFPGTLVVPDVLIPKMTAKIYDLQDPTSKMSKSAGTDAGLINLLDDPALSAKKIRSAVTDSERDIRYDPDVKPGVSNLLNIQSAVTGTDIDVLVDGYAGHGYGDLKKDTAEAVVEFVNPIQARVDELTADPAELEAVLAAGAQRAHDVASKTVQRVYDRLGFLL
UniProt P9WNZ1, whole entry: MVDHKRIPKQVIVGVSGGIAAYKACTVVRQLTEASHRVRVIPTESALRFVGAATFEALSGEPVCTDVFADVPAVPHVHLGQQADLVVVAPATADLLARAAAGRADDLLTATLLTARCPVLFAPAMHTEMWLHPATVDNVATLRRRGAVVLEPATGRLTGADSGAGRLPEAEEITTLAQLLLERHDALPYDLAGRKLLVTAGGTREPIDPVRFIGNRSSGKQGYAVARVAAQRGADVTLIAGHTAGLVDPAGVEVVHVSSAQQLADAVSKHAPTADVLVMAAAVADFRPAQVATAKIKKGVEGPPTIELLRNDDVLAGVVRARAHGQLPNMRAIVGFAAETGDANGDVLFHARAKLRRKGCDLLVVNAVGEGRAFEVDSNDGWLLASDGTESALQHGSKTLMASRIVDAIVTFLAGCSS
UniProt A4I591, 1-473: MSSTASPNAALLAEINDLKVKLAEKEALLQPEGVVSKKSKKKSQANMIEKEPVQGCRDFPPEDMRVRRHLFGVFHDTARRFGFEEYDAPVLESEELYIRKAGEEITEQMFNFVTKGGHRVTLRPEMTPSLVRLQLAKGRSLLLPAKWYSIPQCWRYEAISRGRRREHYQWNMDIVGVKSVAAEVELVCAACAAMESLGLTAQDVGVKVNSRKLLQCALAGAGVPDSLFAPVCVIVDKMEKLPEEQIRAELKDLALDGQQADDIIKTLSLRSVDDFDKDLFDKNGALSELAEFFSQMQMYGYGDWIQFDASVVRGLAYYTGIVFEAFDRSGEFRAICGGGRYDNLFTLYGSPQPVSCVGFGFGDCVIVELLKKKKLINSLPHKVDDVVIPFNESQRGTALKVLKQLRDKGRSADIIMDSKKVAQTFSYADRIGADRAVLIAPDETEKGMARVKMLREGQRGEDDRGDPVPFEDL
UniProt I6X8D2, whole entry: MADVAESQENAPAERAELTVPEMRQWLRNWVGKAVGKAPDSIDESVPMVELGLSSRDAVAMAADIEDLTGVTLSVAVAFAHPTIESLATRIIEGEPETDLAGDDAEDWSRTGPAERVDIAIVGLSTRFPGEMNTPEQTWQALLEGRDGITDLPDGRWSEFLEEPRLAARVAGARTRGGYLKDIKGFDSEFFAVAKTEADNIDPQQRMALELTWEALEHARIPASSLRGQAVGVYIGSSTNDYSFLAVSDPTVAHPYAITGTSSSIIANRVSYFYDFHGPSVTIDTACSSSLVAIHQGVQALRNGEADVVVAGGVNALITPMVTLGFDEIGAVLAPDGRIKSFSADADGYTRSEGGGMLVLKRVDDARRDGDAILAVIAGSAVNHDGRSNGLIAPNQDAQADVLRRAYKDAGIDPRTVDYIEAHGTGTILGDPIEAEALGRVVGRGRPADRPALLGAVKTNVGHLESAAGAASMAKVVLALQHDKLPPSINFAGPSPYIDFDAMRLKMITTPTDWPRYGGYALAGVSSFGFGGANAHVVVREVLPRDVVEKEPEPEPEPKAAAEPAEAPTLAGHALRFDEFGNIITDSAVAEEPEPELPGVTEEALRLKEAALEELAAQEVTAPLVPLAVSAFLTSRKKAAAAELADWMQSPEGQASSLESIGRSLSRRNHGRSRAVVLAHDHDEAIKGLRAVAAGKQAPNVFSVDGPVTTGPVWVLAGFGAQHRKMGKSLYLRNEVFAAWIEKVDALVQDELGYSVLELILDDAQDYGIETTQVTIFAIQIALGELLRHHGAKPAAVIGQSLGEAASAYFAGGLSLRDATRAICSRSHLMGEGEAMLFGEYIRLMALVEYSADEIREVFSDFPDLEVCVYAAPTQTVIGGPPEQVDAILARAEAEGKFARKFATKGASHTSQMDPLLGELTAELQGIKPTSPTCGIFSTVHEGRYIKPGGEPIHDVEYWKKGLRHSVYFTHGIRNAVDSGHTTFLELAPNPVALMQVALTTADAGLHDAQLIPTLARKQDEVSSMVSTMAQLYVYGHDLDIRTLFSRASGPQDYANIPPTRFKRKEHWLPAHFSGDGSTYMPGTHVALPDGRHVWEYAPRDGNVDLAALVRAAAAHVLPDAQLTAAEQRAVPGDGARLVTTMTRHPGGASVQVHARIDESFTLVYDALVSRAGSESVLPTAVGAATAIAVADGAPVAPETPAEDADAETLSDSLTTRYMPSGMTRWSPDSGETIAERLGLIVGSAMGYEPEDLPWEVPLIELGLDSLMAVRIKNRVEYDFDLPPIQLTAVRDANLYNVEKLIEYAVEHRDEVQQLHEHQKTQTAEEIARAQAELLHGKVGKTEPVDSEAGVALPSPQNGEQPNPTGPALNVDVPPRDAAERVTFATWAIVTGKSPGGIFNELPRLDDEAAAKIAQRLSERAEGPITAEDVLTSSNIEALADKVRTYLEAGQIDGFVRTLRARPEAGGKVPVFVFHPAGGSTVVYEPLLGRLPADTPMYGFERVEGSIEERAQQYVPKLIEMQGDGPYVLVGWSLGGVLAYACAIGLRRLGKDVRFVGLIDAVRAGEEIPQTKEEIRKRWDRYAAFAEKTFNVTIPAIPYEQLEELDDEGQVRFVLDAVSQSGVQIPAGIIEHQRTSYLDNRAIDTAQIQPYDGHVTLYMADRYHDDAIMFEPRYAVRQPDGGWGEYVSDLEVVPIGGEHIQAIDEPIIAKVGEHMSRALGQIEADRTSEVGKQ

MtTrpRS: 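Enzyme assay of tryptophanyl-tRNA synthetase; the read-out is not stated. Target: Tryptophan-tRNA ligase, Mycobacterium tuberculosis (UniProt P9WFT3). Compounds at 10 µM. Direction is not recorded; retested compounds ran higher, which suggests that high means inhibition. About 65,000 compounds were tested under these conditions; 0.098% (about 64) showed 50% or more at least once.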
CoaBC: 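Enzyme assay of CoaBC with a phosphate dye (Biomol Green) read at 650 nm. Target: Coenzyme A biosynthesis protein CoaBC, Mycobacterium tuberculosis (UniProt P9WNZ1). Tested at 30 µM. Higher reads as stronger inhibition, judged from the few compounds that gave an IC50. Most strong results did not repeat in a second test. Of about 67,000 compounds tested this way, about 40 (0.06%) reached 50% or more in at least one test.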
LiHisRS: 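Histidine-tRNA ligase, Leishmania infantum (UniProt A4I591). Enzyme assay of histidyl-tRNA synthetase; the read-out is not stated. Concentration: 30 µM. Direction is inferred from retests: higher values go with stronger inhibition. The assay is labelled LdHisRS but filed under L. infantum. About 69,000 compounds were tested under these conditions; 0.6% (about 410) showed 50% or more at least once.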
Pks13 thioesterase: 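Enzyme assay of the thioesterase domain of polyketide synthase 13; the read-out is not stated. Target: Polyketide synthase Pks13, Mycobacterium tuberculosis (UniProt I6X8D2). Concentration: 30 µM. The record gives no direction; the compounds picked for IC50 retests had high values, so higher reads as stronger inhibition. Of about 67,000 compounds tested this way, about 300 (0.46%) reached 50% or more in at least one test.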

Values are the deposited “Percent Effect”, in %.
How 0% and 100% were set is not recorded. Most values in the screen are low, and negative values occur.
This is an unselected part of the compounds tested.

structure: CN(C)C1CCCN(C(=O)NCCC(C)(C)C)C1 (stereo not drawn)
MtTrpRS: -2.528%
CoaBC: 2.727%
LiHisRS: 13.7%
Pks13 thioesterase: 9.224%

structure: c1ccc(-c2nc(CN3CCCC(Cn4cncn4)C3)no2)cc1 (stereo not drawn)
MtTrpRS: -2.242%
CoaBC: 2.872%
LiHisRS: 10.81%
Pks13 thioesterase: -4.501%

structure: CCCS(=O)(=O)N1CCOC2(CCCN(c3ccccn3)C2)C1 (stereo not drawn)
MtTrpRS: 2.905%
CoaBC: 3.759%
LiHisRS: 2.564%
Pks13 thioesterase: 1.931%

structure: CN(C)C(=O)COCc1cncc2c1CCN(Cc1nccn1C)C2
MtTrpRS: 0.9114%
CoaBC: 8.182%
LiHisRS: -4.717%
Pks13 thioesterase: -20.87%

structure: CNc1nccc(C2CCCCN2Cc2cnn3cccnc23)n1 (stereo not drawn)
MtTrpRS: -1.903%
CoaBC: 4.369%
LiHisRS: 11.43%
Pks13 thioesterase: 5.519%

structure: COc1c(CNC2CCCc3ccccc32)c(C(C)C)nn1C (stereo not drawn)
MtTrpRS: 1.652%
CoaBC: 8.094%
LiHisRS: 18.46%
Pks13 thioesterase: -9.277%

structure: O=C(c1cncs1)N1CCc2[nH]nc(Nc3ccccc3)c2C1
MtTrpRS: -7.388%
CoaBC: -2.959%
LiHisRS: 9.859%
Pks13 thioesterase: 15.98%

structure: CCn1cc(CN2CCCN(C(=O)c3ccc(C)o3)CC2)cn1
MtTrpRS: 24.58%
CoaBC: 4.7%
LiHisRS: 15.04%
Pks13 thioesterase: -22.99%

structure: Fc1ccccc1CN1CCC[C@@H](Cn2nnc(-c3cccs3)n2)C1
MtTrpRS: -4.243%
CoaBC: 4.116%
LiHisRS: 16.78%
Pks13 thioesterase: 6.916%

structure: COc1ncccc1NC(=O)NC(C)(C)c1ncc(C)s1
MtTrpRS: 12.71%
CoaBC: -4.032%
LiHisRS: 5.263%
Pks13 thioesterase: -2.23%

structure: N[C@H]1CN(CCOc2ccc(F)cc2)C[C@@H]1C1CC1
MtTrpRS: -3.722%
CoaBC: -20.37%
LiHisRS: 5.376%
Pks13 thioesterase: -22.8%

structure: Cc1c(Cl)c(CN2CCCC2Cn2cncn2)nc2ccccc12 (stereo not drawn)
MtTrpRS: 4.15%
CoaBC: 11.88%
LiHisRS: 34.71%
Pks13 thioesterase: -9.784%

structure: Cc1ccc(C(=O)NCCCn2cccn2)c(=O)[nH]1
MtTrpRS: -1.183%
CoaBC: 7.229%
LiHisRS: 10.45%
Pks13 thioesterase: -20.37%

structure: CC1CN(C)CCN1C(=O)c1cnn(-c2ccc(Cl)cc2)c1 (stereo not drawn)
MtTrpRS: 0.5128%
CoaBC: 2.211%
LiHisRS: 12.9%
Pks13 thioesterase: -9.094%

structure: Clc1cc(Cl)cc(OCCN2CCC(n3cncn3)CC2)c1
MtTrpRS: 0.4405%
CoaBC: -15.37%
LiHisRS: 18.37%
Pks13 thioesterase: 9.577%

structure: O=C(Cc1ccc(F)cc1Cl)N[C@@H]1CCNC[C@H]1O
MtTrpRS: -0.3276%
CoaBC: 5.034%
LiHisRS: 21.13%
Pks13 thioesterase: -20.88%

structure: O=C1NCC2(CCCN(Cc3ccccc3F)C2)Oc2ccccc21 (stereo not drawn)
MtTrpRS: -3.094%
CoaBC: 2.222%
LiHisRS: 22.22%
Pks13 thioesterase: -43.07%

structure: CCN1CCN(c2ccc(NC(=O)CC(C)C)c(C)c2)CC1
MtTrpRS: 1.485%
CoaBC: -1.399%
LiHisRS: 14.63%
Pks13 thioesterase: 3.834%

structure: OCCN1CCN(Cc2coc(-c3ccccc3Cl)n2)CC1
MtTrpRS: -1.727%
CoaBC: 11.9%
LiHisRS: 15.69%
Pks13 thioesterase: -21.17%

Repeated from the top, 2 entries:

| structure | MtTrpRS | CoaBC | LiHisRS | Pks13 thioesterase |
|---|---|---|---|---|
| `CN(C)C1CCCN(C(=O)NCCC(C)(C)C)C1` (stereo not drawn) | -2.528% | 2.727% | 13.7% | 9.224% |
| `c1ccc(-c2nc(CN3CCCC(Cn4cncn4)C3)no2)cc1` (stereo not drawn) | -2.242% | 2.872% | 10.81% | -4.501% |

Source: ChEMBL document CHEMBL3988442, “University of Dundee, Small-Polar-MMV Screening Library” (2021).